{
  "source": "PubChem BioAssay AID624297",
  "about": "(National Center for Advancing Translational Sciences (NCATS), 2012)",
  "note": "The campaign covered roughly 340,000 compounds. About 6,200 (1.8%) were called active. Inconclusive means that the source gave no clear call. Such entries were picked first, then a sample of the others. The call rests on the fitted dose curve; in most records, active means well fitted activation curve with a large enough effect; inconclusive means small, poorly fitted or top-dose-only effect; inactive means no such curve, though single readings can be large or run the other way. A potency beside an inconclusive call is a rough fit, not a confirmed value. Potency means the concentration at half of the fitted maximal effect.",
  "data": [
    {"assay": "A quantitative high throughput screen for small molecules that induce DNA re-replication in SW480 colon adenocarcinoma cells; further: nearly all actives have a fitted effect of over 55% in size; on re-replication activation: % of control where 0% means no effect.", "details": "Hoechst DNA content imaging, 48 h; re-replication activation: at 46.1 µM (top of the series) unless noted", "in_short": "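Image-based read-out: total Hoechst fluorescence of nuclei (405 nm excitation, 500-530 nm emission), with hits raising the fraction of high-intensity nuclei. SW480 colon cells incubated 48 hr with compounds at 37 C.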", "values": [
      {"smiles": "CCc1nc(SCc2nnc(-c3ccc(C)cc3)o2)c2c(C)c(C)sc2n1", "re-replication activation": "inactive: -15.4%"},
      {"smiles": "Cc1nn(C)c(C(=O)Nc2ccn(C34CC5CC(CC(C5)C3)C4)n2)c1[N+](=O)[O-]", "Potency": "inconclusive: 1.3 µM [activator, full curve, poor fit]"},
      {"smiles": "O=[N+]([O-])c1cccc(COc2ccc(CN3CCOCC3)cc2)c1", "Potency": "inconclusive: 2.91 µM [activator, partial curve, poor fit]"},
      {"smiles": "COc1ccc(N2C(S)=C(C#N)C(=O)NC2c2ccco2)cc1", "note": "(stereo not given)", "re-replication activation": "inactive: -225%"},
      {"smiles": "C=CC(C)(C)c1[nH]cnc1/C=C1\\NC(=O)C(C(C)C)NC1=O", "note": "(stereo not given)", "Potency": "inconclusive: 29.1 µM [activator, single point]"},
      {"smiles": "C=CCc1cccc(/C=N/NC(=O)CCC(=O)Nc2ccc(F)cc2)c1O", "Potency": "inconclusive: 0.146 µM [activator, full curve, poor fit]"},
      {"smiles": "Cc1nn(C)cc1/C=N/NC(=S)Nc1ccccc1", "Potency": "active: 1.64 µM"},
      {"smiles": "CCOC(=O)COc1ccc2c(C#N)c3ccccn3c2c1", "Potency": "inconclusive: 5.8 µM [activator, partial curve, poor fit]"},
      {"smiles": "CCC(=O)Nc1nonc1-c1nc2ccccc2n1Cc1cccc2ccccc12", "Potency": "active: 7.31 µM"},
      {"smiles": "CC(C)C(OC(=O)c1nsc(Cl)c1Cl)C(=O)NCc1ccc2c(c1)OCO2", "note": "(stereo not given)", "Potency": "inconclusive: 6.51 µM [activator, single point]"},
      {"smiles": "N#Cc1c(-c2ccccc2)cc(C2CC2)nc1SCC(=O)c1cccs1", "Potency": "active: 9.2 µM"},
      {"smiles": "O=c1c2cc(N3CCOCC3)ccc2[nH]c(=S)n1CCN1CCCC1", "re-replication activation": "inactive: -4.5%"},
      {"smiles": "O=C(CN1C(=O)NC2(CCCCCCC2)C1=O)Nc1ccc(OC(F)F)cc1", "Potency": "inconclusive: 20.6 µM [activator, single point]"},
      {"smiles": "COc1cc(NC2CCCCC2O)c2nc(-c3ccc(Cl)cc3)ccc2c1", "note": "(stereo not given)", "Potency": "active: 13 µM"},
      {"smiles": "O=C(C(=O)N1CCN(c2cccc(Cl)c2)CC1)N1CCCCC1", "re-replication activation": "inactive: 0.121%"},
      {"smiles": "Cc1cccn2c(=O)c(C(=O)NCCCN3CC(C)CC(C)C3)c(O)nc12", "note": "(stereo not given)", "Potency": "inconclusive: 29.1 µM [activator, single point]"},
      {"smiles": "CN(C(=O)c1ccc(COc2ccccc2Cl)o1)c1ccccc1", "re-replication activation": "inactive: -37.4%"},
      {"smiles": "COc1ccc(/C=C/C(=O)C2(O)CCCCC2)cc1", "Potency": "inconclusive: 29.1 µM [activator, single point]"},
      {"smiles": "Cc1ccc(C(C)C)c2c1C(c1ccc3c(c1)OCO3)CC(=O)O2", "note": "(stereo not given)", "Potency": "inconclusive: 32.6 µM [activator, single point]"},
      {"smiles": "COc1ccccc1C(=O)NNC(=O)c1ccccc1Br", "Potency": "inconclusive: 18.4 µM [activator, single point]"},
      {"smiles": "COCCN=c1scc(-c2ccc3c(c2)NC(=O)CO3)n1/N=C(\\C)c1ccc(O)cc1", "Potency": "inconclusive: 20.6 µM [activator, single point]"},
      {"smiles": "O=C(CCc1ccccc1)NC(=S)Nc1ccccc1[N+](=O)[O-]", "Potency": "inconclusive: 20.6 µM [activator, single point]"},
      {"smiles": "CCOC(=O)C1CCN(Cc2nc3ccccc3c(=O)n2-c2ccc(F)cc2)CC1", "re-replication activation": "inactive: -2.51%"},
      {"smiles": "COc1ccc(NS(=O)(=O)c2ccc(NC(=O)Cc3cccs3)cc2)cc1", "re-replication activation": "inactive: 9.49%"},
      {"smiles": "COCCN(Cc1ccccc1)C(=O)c1ccc2c(=O)n3c(nc2c1)CCC3", "re-replication activation": "inactive: -47%"},
      {"smiles": "O=C(CNC(=O)c1ccc(Cl)cc1)NNC(=O)c1ccc(Br)cc1", "re-replication activation": "inactive: 0.319%"},
      {"smiles": "O=C(COc1ccc2cc(Br)ccc2c1Br)N1CCOCC1", "Potency": "inconclusive: 29.1 µM [activator, single point]"},
      {"smiles": "CCc1cc(C(=O)N2CCCC(C(=O)c3ccc(Cl)cc3)C2)no1", "note": "(stereo not given)", "Potency": "inconclusive: 0.517 µM [activator, full curve, poor fit]"},
      {"smiles": "O=C(Nc1ccc(N2CCN(C(=O)c3ccco3)CC2)c(Cl)c1)c1cc2ccccc2o1", "Potency": "inconclusive: 18.4 µM [activator, partial curve, poor fit]"},
      {"smiles": "CC(C)CC1c2[nH]c3ccccc3c2CCN1C(=O)CCC(=O)N(C)C", "note": "(stereo not given)", "re-replication activation": "inactive: -5.05%"},
      {"smiles": "Nc1nc(NCCCN2CCOCC2)nc(Nc2cccc(Cl)c2)c1[N+](=O)[O-]", "Potency": "inconclusive: 23.1 µM [activator, single point]"},
      {"smiles": "O=C(CCS(=O)(=O)c1ccc(Br)cc1)Nc1ccccc1Cl", "Potency": "inconclusive: 0.103 µM [activator, full curve, poor fit]"},
      {"smiles": "Cc1ccn(CC(=O)N/N=C/c2cc([N+](=O)[O-])ccc2O)n1", "Potency": "inconclusive: 18.4 µM [activator, partial curve, poor fit]"},
      {"smiles": "CCOc1cccc(C2C(C(=O)c3ccc(C)o3)=C(O)C(=O)N2CCCn2ccnc2)c1", "note": "(stereo not given)", "Potency": "inconclusive: 4.11 µM [activator, full curve, poor fit]"},
      {"smiles": "Cc1ccc(COc2ccc(CNCCCN3CCCCCC3=O)cc2)cc1", "Potency": "active: 18.4 µM"},
      {"smiles": "COc1ccc(Nc2cc(C(=O)NC3CCCC3)c3ccccc3n2)c(OC)c1", "Potency": "inconclusive: 16.4 µM [activator, single point]"},
      {"smiles": "O=C(CSc1ccccc1)N1CCN(c2ccccn2)CC1", "Potency": "inconclusive: 3.66 µM [activator, full curve]"},
      {"smiles": "Cc1c(C(=O)NCC2COc3ccccc3O2)oc2ccc(S(=O)(=O)N3CC(C)CC(C)C3)cc12", "note": "(stereo not given)", "Potency": "inconclusive: 29.1 µM [activator, single point]"},
      {"smiles": "Oc1ccc(Nc2ccnc3cc(Cl)ccc23)cc1", "Potency": "inconclusive: 29.1 µM [activator, single point]"},
      {"smiles": "CCOC(=O)c1cc(C)sc1NC(=O)CSC1=NCCS1", "Potency": "inconclusive: 29.1 µM [activator, single point]"},
      {"smiles": "NC(N)=N/N=C/c1ccc(Br)cc1", "Potency": "inconclusive: 4.11 µM [activator, full curve]"},
      {"smiles": "O=C(NNc1nc2ccccc2s1)c1ccc(F)cc1", "Potency": "inconclusive: 20.6 µM [activator, single point]"},
      {"smiles": "CCOc1ccc(N(CC(=O)NCCc2ccc(C)cc2)S(=O)(=O)c2c(C)noc2C)cc1", "re-replication activation": "inactive: -5.32%"},
      {"smiles": "CC(C)OC(=O)c1ccc(N2CCN(c3ccccc3F)CC2)nc1", "Potency": "inconclusive: 16.4 µM [activator, single point]"},
      {"smiles": "O=C(NCC(=O)N1CCN(c2cccc(Cl)c2)CC1)c1ccc(Br)o1", "Potency": "inconclusive: 0.326 µM [activator, full curve, poor fit]"},
      {"smiles": "CN1/C(=C\\C(=O)COC(=O)c2ccc(O)cc2)C(C)(C)c2ccccc21", "re-replication activation": "inactive: -28.1%"},
      {"smiles": "N#C/C(=C(/O)COc1ccc(Cl)cc1)c1nc2ccccc2s1", "re-replication activation": "inactive: 0.122%"},
      {"smiles": "CCc1ccc2c(c1)C1(NN=C(c3ccc(C)cc3)S1)C(=O)N2", "note": "(stereo not given)", "Potency": "inconclusive: 4.61 µM [activator, full curve, poor fit]"},
      {"smiles": "O=C(CCNC(=O)c1ccco1)NCCN1C(=O)S/C(=C\\c2ccc(F)cc2)C1=O", "re-replication activation": "inactive: 1.26%"},
      {"smiles": "Cc1ccccc1Oc1nc2ccccc2n2cnnc12", "Potency": "inconclusive: 29.1 µM [activator, single point]"},
      {"smiles": "COc1cc(C(=O)Oc2ccccc2/C=N/NC(=O)c2ccc(Cl)cc2)cc(OC)c1OC", "Potency": "inconclusive: 1.46 µM [activator, full curve]"},
      {"smiles": "COc1ccc(CC(=O)Nc2cccc(-c3nnc(-c4cccc(C)c4)o3)c2)cc1OC", "re-replication activation": "inactive: -3.49% [at 9.22 µM]"},
      {"smiles": "CCCn1nc(C(=O)NNC(=O)c2ccc(C)c(C)c2)c2ccccc2c1=O", "re-replication activation": "inactive: 2.34%"},
      {"smiles": "CCOc1cc(/C=C2/C(=O)ON=C2C)ccc1OCc1ccc(F)cc1", "Potency": "active: 18.4 µM"},
      {"smiles": "CC(C)COc1ccc(CNC(=S)Nc2ccccc2)cc1Cl", "Potency": "inconclusive: 20.6 µM [activator, single point]"},
      {"smiles": "O=C(Nc1cccc(F)c1)c1c(O)c2ccccc2[nH]c1=O", "Potency": "inconclusive: 6.51 µM [activator, single point]"},
      {"smiles": "Cc1c(C(=O)N2CCN(C3CCS(=O)(=O)C3)CC2)oc2c(F)cccc12", "note": "(stereo not given)", "Potency": "inconclusive: 0.731 µM [activator, partial curve, poor fit]"},
      {"smiles": "CCOC(=O)c1c(NC(=O)CSc2nnnn2-c2ccc3c(c2)OCO3)sc(C)c1C", "Potency": "inconclusive: 29.1 µM [activator, single point]"},
      {"smiles": "CCN(C(=O)COC(=O)C1CC1C)c1c(N)n(Cc2ccccc2)c(=O)[nH]c1=O", "note": "(stereo not given)", "re-replication activation": "inactive: -1.72%"},
      {"smiles": "COc1cc(/C=N/NC(=O)C23CC4CC(CC(C4)C2)C3)cc(Br)c1O", "Potency": "inconclusive: 3.66 µM [activator, single point]"},
      {"smiles": "Cc1ccc(/C=N/NC(=O)Cc2cccn2C)s1", "Potency": "inconclusive: 29.1 µM [activator, single point]"},
      {"smiles": "O=C(NC1CCCCC1)N1CCN(CCc2ccccc2)CC1", "re-replication activation": "inactive: 0.44%"},
      {"smiles": "CCn1c(=O)c(=O)[nH]c2c(=O)oc3ccc(S(=O)(=O)Nc4ccc(OC)cc4)cc3c21", "Potency": "inconclusive: 32.6 µM [activator, partial curve, poor fit]"},
      {"smiles": "CCn1cc(CN(C)C(=O)CSc2nc(-c3ccco3)cc(C(F)(F)F)n2)c(C)n1", "Potency": "inconclusive: 32.6 µM [activator, partial curve, poor fit]"},
      {"smiles": "O=C(Nc1ccccc1F)Oc1cccc(OC(=O)Nc2ccccc2F)c1", "re-replication activation": "inactive: 2.51%"},
      {"smiles": "Cc1ccc(OCc2cc(C(=O)N3CCN(C)C[C@@H]3c3ccccc3)no2)cc1C", "Potency": "inconclusive: 25.9 µM [activator, single point]"},
      {"smiles": "C[C@@H](NC(=O)c1coc(=O)c(Br)c1)c1ccccc1", "Potency": "inconclusive: 25.9 µM [activator, single point]"},
      {"smiles": "CN(CC(=O)Nc1cccc(F)c1)CC(=O)Nc1ccccc1Oc1ccccc1", "re-replication activation": "inactive: 4.13%"},
      {"smiles": "COCCCC1CCN(C(=O)C2CCC(=O)N(Cc3cccc(F)c3)C2)CC1", "note": "(stereo not given)", "re-replication activation": "inactive: 5.4%"},
      {"smiles": "CC(C)(C)c1ccc(C(=O)Nc2ccc(C=C(C#N)C#N)cc2)cc1", "Potency": "inconclusive: 18.4 µM [activator, single point]"}
    ]}
  ]
}
